The assay concerns LNCaP cells. Nature of the assay: Cell proliferation/viability assay, LNCaP (Alamar blue). Conditions: Homo sapiens, AR specific proliferation with 0.1 nM R1881, read-out: Cellular Proliferation/Viability IC50 (μM) LNCaP. Type of assay: cell-based. How it is done: Cell proliferation/viability was measured in LNCaP and PC3 cells with Alamar blue, and proliferation was measured in LN-CaP95 cells with BrdU incorporation. In LNCaP cells, AR specific proliferation is calculated by measuring the difference between control cells treated with or without 0.1 nM R1881.
For orientation: Resazurin is reduced to fluorescent resorufin, in cell work by metabolically active cells.

Consider `CNC(=O)c1ccc(N2C(=S)N(c3ccc(C#N)c(C(F)(F)F)c3)C(=O)C2(C)C)cc1F` [Enzalutamide, enzalutamide, reference compound], for which the IC50 worked out at 0.35 µM.

The record behind these values is US11059795B2, “Androgen receptor modulators and methods for their use” (ESSA Pharma, Inc., priority 2018, dated 2021).
